Experiment [1] concerns the target human PD1 on NFAT-luc2/PD1 Jurkat Cell line (Promega, #CS187102) (human) (UniProt Q15116). The experiment in a line: flow cytometry on NFAT-luc2/PD1 Jurkat cells, Ab 10 micro g/mL, detected with Goat F(ab')2 anti-Human IgG-PE. On the technique in general: In flow cytometry, cells or beads pass a laser one at a time.
For experiment [2] the target is unchanged. Nature of the experiment: flow cytometry, antibody 10 micro g/mL on NFAT-luc2/PD1 Jurkat cells, anti-human IgG-PE detection.

Amino acid sequences for entries named in this document (tags omitted). Residues count along the entry.
UniProt Q15116, residues 25-288: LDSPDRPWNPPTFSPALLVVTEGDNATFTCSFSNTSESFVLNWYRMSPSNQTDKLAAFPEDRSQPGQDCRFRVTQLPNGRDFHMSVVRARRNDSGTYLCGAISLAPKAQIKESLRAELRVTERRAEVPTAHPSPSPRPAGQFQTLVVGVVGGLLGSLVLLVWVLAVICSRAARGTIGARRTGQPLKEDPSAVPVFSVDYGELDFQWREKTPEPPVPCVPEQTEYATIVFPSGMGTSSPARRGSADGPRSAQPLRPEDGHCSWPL

The text below walks through data of patent publication US20260265386A1 (Chugai, published 2026).

Results are given in words; binding and its absence hold for the method and conditions named. Some results given as binding are weak or reduced against the parent protein; the word gives no strength.

B1: PDA0041 (antibody, human IgG1, kappa, V domains shown)
VH: QEQLEESGGDLVKPGASLTLTCTASGFSFNSYWMSWVRQAPGKGLEWIADIGAGGSGSTFYASWAKGRFTISKTSSTTVTLQMTSLTAADTATYFCARYVDGGHSDLWGPGTLVTVSS
VL: AFELTQTPSSVEAAVGGTVSINCQASEDIERYLAWYQQRPGQPPKLLIYTASSLPSGVPSRFKGSGSGTQFTLTISDLEAADAATYYCQQGWSDANVDNTFGGGTEVVVKR
In the case of B1, the binding entry in experiment [1] and in experiment [2] was “binds” in each case.

B2: PDA0070 (antibody, human IgG1, kappa, V domains shown)
VH: QEQLEESGGDLVKPGASLTLTCTASGFSFNSYWMSWVRQAPGKGLEWIADIGAGGSGSTFYASWAKGRFTISKTSSTTVTLQMTSLTAADTATYFCARYVDGGHSDLWGPGTLVTVSS
VL: AFELTQTPSSVEAAVGGTVSINCQASEDIERYLAWYQQRPGQPPKLLIYTASSLPSGVPSRFKGSGSGTQFTLTISDLEAADAATYYCQQGWSDANVDNTFGGGTEVVVKR
Consider B2, for which the binding result in experiment [1] and in experiment [2] was “binds” each time.
